Measurements reported in PubChem BioAssay AID1259308 (NCATS, 2017).
The whole screen tested about 59,000 reagents; below is a random part of them. About 1,510 of them (2.6%) were called active. 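Calls use total luciferase alone and ignore viability, so some active siRNAs may act by altering cell number.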 Reagents against one gene are numbered here. Not all columns of the deposit are shown.

Screen: 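Genes whose loss raises luciferase production in HEK293 cells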 (primary screen)
System: human HEK293 embryonic kidney cells stably expressing firefly luciferase (HEK-CMV-Luc2-Hygro)
Reagent: single siRNA against human genes, 0.8 pmol siRNA per well
Timing: 72 h
Measurement: 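Reporter luminescence and viable-cell signal on separate replicate plates, given as percent of non-targeting control and median/MAD z-scores, plus per-cell luciferase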
Reading the numbers: total luciferase, z-score and total luciferase, % of control: higher = more reporter protein produced; luciferase per cell, z-score: higher = more reporter output per viable cell
Call rule: 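Active when the median/MAD z-score for overall luciferase is greater than 3; a gene was taken forward for validation with new siRNAs if at least two of its three siRNAs passed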
Meaning of the calls: active = raised luciferase; inactive = no rise

Target gene	reagent no.	total luciferase, z-score	total luciferase, % of control	luciferase per cell, z-score	Outcome
ARHGEF6 (GeneID 9459)	1	-1.82	45.7	-1.43	inactive
ARHGEF6 (GeneID 9459)	2	-0.162	78.7	-0.2	inactive
ARHGEF6 (GeneID 9459)	3	-0.646	69	-1.18	inactive
SLC6A20 (GeneID 54716)	1	-1.28	56.4	-1.27	inactive
SLC6A20 (GeneID 54716)	2	2.19	125	1.73	inactive
SLC6A20 (GeneID 54716)	3	0.67	95.2	0.541	inactive
DIPK2A (GeneID 205428)	1	-0.165	78.6	-0.235	inactive
DIPK2A (GeneID 205428)	2	2.17	125	1.2	inactive
DIPK2A (GeneID 205428)	3	-0.225	77.4	-0.00906	inactive
CEP128 (GeneID 145508)	1	0.0878	83.6	-0.901	inactive
CEP128 (GeneID 145508)	2	0.252	86.9	-0.422	inactive
CEP128 (GeneID 145508)	3	-0.409	73.8	-0.708	inactive
SLED1 (GeneID 643036)	1	-1.62	49.6	-1.98	inactive
SLED1 (GeneID 643036)	2	-0.329	75.4	-0.553	inactive
SLED1 (GeneID 643036)	3	0.445	90.7	0.645	inactive
HCAR1 (GeneID 27198)	1	0.387	89.6	1.38	inactive
HCAR1 (GeneID 27198)	2	0.989	102	0.607	inactive
HCAR1 (GeneID 27198)	3	0.818	98.2	0.396	inactive
BTN2A2 (GeneID 10385)	1	1.4	110	1.89	inactive
BTN2A2 (GeneID 10385)	2	0.39	89.6	0.445	inactive
BTN2A2 (GeneID 10385)	3	-0.525	71.5	-1.07	inactive
DCTN2 (GeneID 10540)	1	-1.69	48.2	-1.14	inactive
DCTN2 (GeneID 10540)	2	-0.361	74.7	-0.354	inactive
DCTN2 (GeneID 10540)	3	-0.787	66.2	-0.853	inactive
CD81 (GeneID 975)	1	0.198	85.8	-0.219	inactive
CD81 (GeneID 975)	2	0.771	97.2	-0.317	inactive
CD81 (GeneID 975)	3	2.05	123	1.15	inactive
ARX (GeneID 170302)	1	-0.273	76.5	-0.316	inactive
ARX (GeneID 170302)	2	1.77	117	1.01	inactive
ARX (GeneID 170302)	3	0.308	88	0.2	inactive
MMP2 (GeneID 4313)	1	-0.582	70.3	-0.0515	inactive
MMP2 (GeneID 4313)	2	1.03	102	0.178	inactive
MMP2 (GeneID 4313)	3	-0.896	64.1	-0.963	inactive
TFAP2D (GeneID 83741)	1	0.343	88.7	0.516	inactive
TFAP2D (GeneID 83741)	2	-0.502	71.9	-0.936	inactive
TFAP2D (GeneID 83741)	3	-0.422	73.5	-0.399	inactive
STEAP2 (GeneID 261729)	1	1.02	102	1.39	inactive
STEAP2 (GeneID 261729)	2	-1.34	55.2	-0.457	inactive
STEAP2 (GeneID 261729)	3	0.804	97.9	0.658	inactive
OR52I2 (GeneID 143502)	1	-2.61	30	-2.44	inactive
OR52I2 (GeneID 143502)	2	2.31	128	1.6	inactive
OR52I2 (GeneID 143502)	3	-0.598	70	-0.591	inactive

Next part, starting with the last 9 of the part before.
Target gene	reagent no.	total luciferase, z-score	total luciferase, % of control	luciferase per cell, z-score	Outcome
TFAP2D (GeneID 83741)	1	0.343	88.7	0.516	inactive
TFAP2D (GeneID 83741)	2	-0.502	71.9	-0.936	inactive
TFAP2D (GeneID 83741)	3	-0.422	73.5	-0.399	inactive
STEAP2 (GeneID 261729)	1	1.02	102	1.39	inactive
STEAP2 (GeneID 261729)	2	-1.34	55.2	-0.457	inactive
STEAP2 (GeneID 261729)	3	0.804	97.9	0.658	inactive
OR52I2 (GeneID 143502)	1	-2.61	30	-2.44	inactive
OR52I2 (GeneID 143502)	2	2.31	128	1.6	inactive
OR52I2 (GeneID 143502)	3	-0.598	70	-0.591	inactive
LBX1 (GeneID 10660)	1	-2.34	35.4	-1.63	inactive
LBX1 (GeneID 10660)	2	-0.0713	80.5	0.213	inactive
LBX1 (GeneID 10660)	3	0.997	102	0.886	inactive
ELOA2 (GeneID 51224)	1	0.842	98.6	0.682	inactive
ELOA2 (GeneID 51224)	2	-0.794	66.1	-0.701	inactive
ELOA2 (GeneID 51224)	3	-0.798	66	-0.298	inactive
HSFY1 (GeneID 86614)	1	-0.397	74	-1.09	inactive
HSFY1 (GeneID 86614)	2	-0.413	73.7	0.0173	inactive
HSFY1 (GeneID 86614)	3	-0.0799	80.3	-0.384	inactive
IKZF3 (GeneID 22806)	1	-0.6	70	-0.955	inactive
IKZF3 (GeneID 22806)	2	0.519	92.2	0.619	inactive
IKZF3 (GeneID 22806)	3	0.36	89	0.201	inactive
NR0B2 (GeneID 8431)	1	-0.641	69.1	0.515	inactive
NR0B2 (GeneID 8431)	2	0.446	90.7	-0.422	inactive
NR0B2 (GeneID 8431)	3	-1.37	54.7	-2.15	inactive
MALT1 (GeneID 10892)	1	-0.877	64.5	-1.48	inactive
MALT1 (GeneID 10892)	2	0.966	101	1.18	inactive
MALT1 (GeneID 10892)	3	-0.669	68.6	-1.11	inactive
FOSL2 (GeneID 2355)	1	-0.406	73.8	0.568	inactive
FOSL2 (GeneID 2355)	2	-1.43	53.5	-0.842	inactive
FOSL2 (GeneID 2355)	3	-0.502	71.9	-0.696	inactive
ARHGEF2 (GeneID 9181)	1	-1.13	59.5	-1.85	inactive
ARHGEF2 (GeneID 9181)	2	0.203	85.9	-0.0978	inactive
ARHGEF2 (GeneID 9181)	3	-0.949	63	-1.38	inactive
TNF (GeneID 7124)	1	6.36	208	3.42	active
TNF (GeneID 7124)	2	-0.698	68	-0.622	inactive
TNF (GeneID 7124)	3	0.112	84.1	0.728	inactive
RTP1 (GeneID 132112)	1	0.162	85.1	0.381	inactive
RTP1 (GeneID 132112)	2	-1.29	56.2	-1.7	inactive
RTP1 (GeneID 132112)	3	-1.27	56.5	-0.236	inactive
ELAC1 (GeneID 55520)	1	-1.59	50.3	-0.95	inactive
ELAC1 (GeneID 55520)	2	3.1	144	1.96	active
ELAC1 (GeneID 55520)	3	0.737	96.5	0.807	inactive
